Values from PubChem BioAssay AID686937 (Drosophila RNAi Screening Center, 2013)

Screen: 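Genes whose loss weakens secretory pathway function in fly cells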 (primary screen)
System: Drosophila S2 cells expressing secreted horseradish peroxidase
Reagent: long dsRNA against Drosophila genes
Timing: about 5.5 days (5 days dsRNA, then 12 h reporter induction)
Treatment: reporter expression induced after 5 days of dsRNA, read 12 h later; inducer not stated
Detection: 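Chemiluminescent measurement of peroxidase in the medium 12 h after reporter induction, following 5 days of dsRNA, given as a z-score per plate; higher means more secretion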
Scale: z-score: higher = more reporter secreted into medium
The screen tested about 23,000 reagents; below is an unselected part of those with a known target gene and a result. 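Reduced-secretion tags in replicate 1 do not always agree with the z-scores; no criterion for assigning the tags was given.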 Not all columns of the deposit are shown. Not stated in the record: the amount of reagent.

z-score, replicate 1, by gene knocked down and reagent
Lime (GeneID 36023): DRSC06752 0.4
CG30178 (GeneID 246501): DRSC21911 -0.19
cGlr2 (GeneID 246606): DRSC04017 -2.41
Pebp1 (GeneID 42644): DRSC15354 -0.58
Alp11 (GeneID 32496): DRSC20080 0.28
Gpdh3 (GeneID 42624): DRSC15325 0.2
CG42540 (GeneID 38562): DRSC08327 -0.64; DRSC08328 -0.38; DRSC08593 -2.59
CG3517 (GeneID 42324): DRSC15492 0.5
nebu (GeneID 39458): DRSC09807 0.41; DRSC09808 0.2
CG42686 (retired record) (GeneID 42674): DRSC15247 -2.8; DRSC15248 0.33
obst-E (GeneID 33806): DRSC02128 0.13
Ibf2 (GeneID 41102): DRSC16551 0.05
osp (GeneID 34850): DRSC01409 -0.17; DRSC03585 0.42
CG12934 (GeneID 36124): DRSC06247 0.56
CG42360 (GeneID 37937): DRSC04224 -0.05
CG12376 (GeneID 35857): DRSC06144 0.2
CG12069 (GeneID 43643): DRSC14470 0.47

In a second layout: results already given.
Alp11 (GeneID 32496) [DRSC20080]: z-score, replicate 1 = 0.28
Gpdh3 (GeneID 42624) [DRSC15325]: z-score, replicate 1 = 0.2
CG42540 (GeneID 38562) [DRSC08327]: z-score, replicate 1 = -0.64
CG42540 (GeneID 38562) [DRSC08328]: z-score, replicate 1 = -0.38
CG42540 (GeneID 38562) [DRSC08593]: z-score, replicate 1 = -2.59

Additional records follow:
z-score, replicate 1, by gene knocked down and reagent
Zcchc7 (GeneID 39883): DRSC11099 0.17
Cyp4d1 (GeneID 31188): DRSC17694 -0.48; DRSC18456 0.09
5-HT2B (GeneID 41017): DRSC16360 0.42; DRSC16362 0.41
Gr93d (GeneID 117470): DRSC21941 0.13
CG3527 (GeneID 31387): DRSC18307 0.34
ppk20 (GeneID 43486): DRSC16260 0.26
CG33494 (GeneID 2768686): DRSC13715 0.76
fdl (GeneID 250735): DRSC07279 0.33
spoon (GeneID 31459): DRSC18299 0.34
